Source: PubChem BioAssay AID652272 (Drosophila RNAi Screening Center, 2013)
The deposit covers about 21,000 reagents; this is a random part of those with a known target gene and a result. In the full data, 503 (2.4%) are marked active. 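Raw plate light values, not normalised; calls rest on replicate z-scores that were not deposited; hits include reporter decreases as well as increases.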 A plus sign joins genes that one reagent is predicted to hit. Not stated in the record: the amount of reagent, the time to read-out.

Screen: 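Genes whose knock-down decreases or increases Hedgehog reporter output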 (primary screen)
Cell system: Drosophila clone 8 (Cl8) cells
Reagents: long dsRNA against Drosophila genes
Read-out: 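Plate reader light from a firefly reporter under a ptc promoter fragment that responds to Hedgehog, with Renilla light as transfection reference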
Direction: firefly Hh reporter signal: higher = more ptc reporter light; Renilla reference signal: higher = more Renilla control light
Hit rule: 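Called a hit if the two-replicate mean z-score lies below -2 or above +3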
Calls: active = hit: reporter lowered or raised; inactive = not a hit

gene	amplicon	firefly Hh reporter signal, replicate 1	firefly Hh reporter signal, replicate 2	firefly Hh reporter signal, replicate 3	Renilla reference signal, replicate 1	Renilla reference signal, replicate 2	call
Mitf	DRSC17212	94140	2.27e5		2553	9115	inactive
Mitf	DRSC21056	5.45e5	2.08e5		30475	4470	inactive
RpL32 (Ribosomal protein L32)	DRSC16835	30695	2.59e5	23971	2320	1539	active
hoka	DRSC08313	51748	77851		4076	5344	inactive
CG6665	DRSC07006	1.18e5	1.01e5		5485	4192	inactive
CG2145	DRSC19835	91512	68279		1985	1612	inactive
CG42557 + CG42558	DRSC13963	57667	3.27e5		13472	7460	inactive
CG42557 + CG42558	DRSC16329	81072	54384		2145	1888	inactive
Alas (Aminolevulinate synthase)	DRSC04044	65552	56208		2707	2219	inactive
CG5961	DRSC15927	1.74e5	1.51e5		7337	5788	inactive
eIF2Bbeta (eukaryotic translation initiation factor 2B subunit beta)	DRSC18465	69066	2.06e5		1383	8166	inactive
MED24 (Mediator complex subunit 24)	DRSC10944	52644	64931		2147	4741	inactive
STUB1 (STIP1 homology and U-box containing protein 1)	DRSC03282	1.16e5	70902		2908	5771	inactive
Fcp3C (Follicle cell protein 3C)	DRSC18665	1.17e5	1.97e5		4588	7993	inactive
asf1 (anti-silencing factor 1)	DRSC11324	54765	75731		2378	2763	inactive

The list goes on; the last 3 above are carried over.
gene	amplicon	firefly Hh reporter signal, replicate 1	firefly Hh reporter signal, replicate 2	firefly Hh reporter signal, replicate 3	Renilla reference signal, replicate 1	Renilla reference signal, replicate 2	call
STUB1 (STIP1 homology and U-box containing protein 1)	DRSC03282	1.16e5	70902		2908	5771	inactive
Fcp3C (Follicle cell protein 3C)	DRSC18665	1.17e5	1.97e5		4588	7993	inactive
asf1 (anti-silencing factor 1)	DRSC11324	54765	75731		2378	2763	inactive
CG14443	DRSC17936	72107	1.45e5		2726	5850	inactive
mthl3 (methuselah-like 3)	DRSC06997	1.00e5	76433		4989	3508	inactive
CG34324	DRSC19502	86376	3.19e5		2530	13184	inactive
Galphai (G protein alpha subunit i)	DRSC11168	1.14e5	65724		4948	2946	inactive
nab	DRSC08455	76695	64678		3184	4177	inactive
nab	DRSC08456	1.02e5	63680		2436	3664	inactive
prc (pericardin)	DRSC11385	54800	46731	40900	3976	2709	inactive
kek4 (kekkon 4)	DRSC03220	78928	68624		3833	2828	inactive
